Data reported in PubChem BioAssay AID504834 (National Center for Advancing Translational Sciences (NCATS), 2011).
Hit rate of the full screen: of about 320,000 compounds, about 22,000 (6.9%) were called active. The shares of active, inactive and inconclusive entries below differ from those in the screen. Calls come from the whole dose curve; as a rule, active = well fitted inhibition curve with a large enough effect; inconclusive = small, poorly fitted or top-dose-only effect, or another doubt; inactive = no such curve, though single readings can be large or run the other way. Where the call is inconclusive, the potency comes from a doubtful curve fit.

Assay: Primary qHTS for delayed death inhibitors of the malarial parasite plastid, 96 hour incubation
Settings: P. falciparum luciferase reporter growth; series mostly up to 28.7 µM
Summary of the method: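 P. falciparum expressing integrated firefly luciferase, in erythrocytes at 2% hematocrit, 0.05% parasitemia, incubated with compounds 96 h at 37 C, 5% CO2. Growth inhibition read as loss of luminescence; two-generation exposure targets delayed-death apicoplast inhibitors.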
Potency is the fitted concentration of half-maximal effect.

Structure (SMILES)	Potency
CCO[C@@H]1OC(C(=O)NCc2nc3ccccc3[nH]2)=C[C@H](c2ccccc2)[C@H]1CCCO	inconclusive: 7.38 µM [inhibitor, partial curve, poor fit]
COc1ccccc1NC(=O)CSc1nc(N)c(-c2ccccc2)c(=O)[nH]1	inconclusive: 11.7 µM [inhibitor, single point]
COc1cccc(C(=O)C(C#N)=C(SC)SC)c1	inconclusive: 10.4 µM [inhibitor, single point]
CC(C)(C)C(O)C(Oc1ccc(Cl)cc1)n1cncn1 (stereo unspecified)	inactive
CCN1CCc2c(sc(NC(=O)Cc3ccccc3)c2C(N)=O)C1	inconclusive: 13.1 µM [inhibitor, partial curve, poor fit]
O=C(O)CCC(=O)Nc1ccc(-c2nc3ccc(C(=O)c4ccccc4)cc3[nH]2)cc1	inconclusive: 18.5 µM [inhibitor, single point]
O=c1[nH]n(-c2ccccn2)c(=O)c2ccccc12	inconclusive: 18.5 µM [inhibitor, single point]
O=C(c1sc2cc([N+](=O)[O-])ccc2c1Cl)N1CCCCC1	inconclusive: 14.7 µM [inhibitor, partial curve]
C[C@@H](CN(C)C)CN1c2ccccc2CCc2ccccc21	inconclusive: 8.09 µM [inhibitor, single point]
O=C(O)C=C1CCN(c2ncc(C(F)(F)F)cc2Cl)CC1	inconclusive: 1.65 µM [inhibitor, partial curve, poor fit]
O=C(CN1C(=O)NC2(CCCCCC2)C1=O)N1CCC(Cc2ccccc2)CC1	inconclusive: 10.4 µM [inhibitor, single point]
Cc1c(NS(=O)(=O)c2ccc3nc(COc4ccccc4Cl)[nH]c3c2)c(=O)n(-c2ccccc2)n1C	inconclusive: 11.7 µM [inhibitor, single point]
COCCCNC(=O)C1CC(=O)OC1c1ccc(OC)c(OC)c1 (stereo unspecified)	inactive
COc1ccc(-c2cc3nc(C)cc(NCCO)n3n2)cc1	active: 4.65 µM
CC(=O)c1c(C)[nH]c(C(=O)CSc2ncnc3sc(-c4ccccc4)cc23)c1C	inconclusive: 2.33 µM [inhibitor, partial curve, poor fit]
CCOC(=O)/C=C1\CN(Cc2cc(OC)c(OC)c(OC)c2)S(=O)(=O)c2ccccc21	inconclusive: 4.15 µM [inhibitor, partial curve, poor fit]
O=C(Cc1cccs1)NCc1ccc(F)cc1	inactive
CNC(=S)NC1CC2CCCC(C1)N2Cc1ccccc1OC (stereo unspecified)	inconclusive: 11.7 µM [inhibitor, partial curve]
COc1ccc(-n2c(Cc3cccn3C)nnc2SCC(=O)Nc2cccc(C)c2C)cc1	inconclusive: 10.4 µM [inhibitor, single point]
COc1ccc(Cl)cc1S(=O)(=O)N1CCC(C(=O)NCCC2=CCCCC2)CC1	inactive
C=CCc1c(C)c(C#N)c2nc3ccccc3n2c1NCCN(C)C	inconclusive: 3.29 µM [inhibitor, full curve]
CC(C)(C)C(=O)N1CCN(c2c(Cl)cccc2[N+](=O)[O-])CC1	inactive
COc1cccc(NC(=O)c2ccccc2-c2nc(-c3ccc(F)cc3)no2)c1	inactive

In another format: two of the compounds above
Structure (SMILES) | Potency
O=C(O)CCC(=O)Nc1ccc(-c2nc3ccc(C(=O)c4ccccc4)cc3[nH]2)cc1 | inconclusive: 18.5 µM [inhibitor, single point]
CC(C)(C)C(=O)N1CCN(c2c(Cl)cccc2[N+](=O)[O-])CC1 | inactive

Later entries

Structure (SMILES)	Potency
CCOc1ccc(NC(=O)CN(c2cc(C)cc(C)c2)S(=O)(=O)c2c(C)noc2C)cc1	inconclusive: 16.5 µM [inhibitor, single point]
CCOC(=O)C1(CCOc2ccccc2)CCN(Cc2cccc3nonc23)CC1	inactive
CCNC(=O)N(C)c1nncnc1C(=O)NC	inactive
Cc1csc(=Nc2ccc(S(=O)(=O)N3CCOCC3)cc2)n1Cc1ccco1	inconclusive: 11.7 µM [inhibitor, partial curve, poor fit]
CCCC1=C(C(=O)OCC)C(c2cccs2)n2ncnc2N1 (stereo unspecified)	inactive
Cc1ccc(C(=O)COC(=O)CCCC(=O)Nc2cc(C(F)(F)F)ccc2Cl)cc1C	inconclusive: 1.31 µM [inhibitor, partial curve, poor fit]
CCOC(=O)N1CCN(C(=O)C(CC(C)C)NS(=O)(=O)c2ccc3c(c2)oc(=O)n3C)CC1 (stereo unspecified)	active: 10.4 µM
CCC1CCCCN1C(=O)CSc1nnc(-c2ccc(Cl)cc2)o1 (stereo unspecified)	inconclusive: 11.7 µM [inhibitor, single point]
COc1ccc(S(=O)(=O)N2CCN(C)CC2)cc1C(=O)N1CCCCC1	inconclusive: 14.7 µM [inhibitor, partial curve, poor fit]
COCC(C)n1c(SCC(=O)Nc2ccc3c(c2)OCCO3)nc2ccccc2c1=O (stereo unspecified)	inconclusive: 18.5 µM [inhibitor, single point]
CCNc1nc(NCC)nc(OCCOC(=O)c2ccccc2)n1	inconclusive: 1.65 µM [inhibitor, full curve, poor fit]
O=C(CCNc1cccc(F)c1)c1cccc([N+](=O)[O-])c1	inactive
O=C(O)c1cc(-c2ccc3ccccc3n2)nc2ccccc12	inactive
C=CCOn1c(=O)c(=O)n(OCc2ccccc2)c2ccccc21	inactive
Cc1cc(-n2cnc(-c3cn[nH]c3C)n2)no1	inactive
CCCNCc1cc(OC)c(OCC(=O)NCCc2ccccc2)cc1Br	inconclusive: 18.5 µM [inhibitor, single point]
CC(=O)NCCn1c(C)cc2ccccc21	inactive
CCN(CC)S(=O)(=O)c1ccc(NC2c3ccccc3C(=O)N2c2ccc(C)cn2)cc1 (stereo unspecified)	inconclusive: 0.828 µM [inhibitor, full curve, poor fit]
COCCCNC(=O)Cn1ccc(N)nc1=O	inactive
COCCN1C(=O)c2ccc(C(=O)NCc3ccco3)cc2C1=O	inactive
CCc1nc(C)cn1S(=O)(=O)c1ccc([N+](=O)[O-])cc1	inconclusive: 2.94 µM [inhibitor, full curve]
COc1cccc2cc(C(=O)OC3CCN(C)CC3)c(=O)oc12	active: 11.7 µM
C#CCOCCOCCOCCNc1nc(N2CCN(C(=O)Cn3cc(CCCCN)nn3)CC2)nc(N2CCN(C(=O)Cn3cc(CCCN=C(N)N)nn3)CC2)n1	active: 0.828 µM
